Experimental data from patent US9359378B2, “Substituted oxazolo[3,4-a]pyrazines as pharmaceutcals” (BIOLAB SANUS FARMACÊUTICA LTDA., priority 2014, dated 2016).
At least one structure is not confirmed: it was looked up by name or label, or the drawing left a doubt.

System: rabbit's corpus cavernosum
Assay: Relaxing effect in isolated rabbit's corpus cavernosum strips pre-contracted with phenylephrine (isometric tension)
Design: species or system New Zealand White rabbits
Conditions: 1 μM compound; contraction induced by 1 μM phenylephrine (PE); FIGS. 8-10
Protocol: For this study, New Zealand White rabbits (2 to 3.5 kg) were used to obtain penile tissue which was excised and transferred to a chilled Krebs solution. For this study, we used cavernosum strips (CC) of the penile tissue of New Zealand White rabbits. The strips were mounted in 10 ml tissue incubation chambers containing Krebs solution at 37° C., pH occurring between 7.3 and 7.5; continuously bubbled with a mixture of 95% oxygen (O2) and 5% carbon dioxide (CO2). An initial tension of 10 mN were applied on the tissues, followed by a 60 minute stabilization period. Changes in tension (isometric force) were obtained using isometric transducers (ADInstruments, Australia) and recorded in a data acquisition system PowerLab 4/30 (Chart Software, version 7.3.7, ADInstruments, MA, USA for BL-230 and version 7.0 ADInstruments, MA for the BL-236). […] Cumulative curve responses to the concentration of BL-230 compounds and tadalafil (0.001 to 10 μM) were obtained in the pre-contracted rabbit corpus cavernosum strips with 1 μM PE.

CN1CC(=O)N2[C@H](c3ccc4c(c3)OCO4)c3[nH]c4ccccc4c3C[C@@H]2C1=O [tadalafil, reference compound]
tissue relaxation of phenylephrine-contracted corpus cavernosum: resulted in tissue relaxation
